Sequences of proteins named here, by UniProt entry; tags and fusion partners are left off. A change or cut given only in a name is not applied to a line headed by its entry.
UniProt A8K0S8: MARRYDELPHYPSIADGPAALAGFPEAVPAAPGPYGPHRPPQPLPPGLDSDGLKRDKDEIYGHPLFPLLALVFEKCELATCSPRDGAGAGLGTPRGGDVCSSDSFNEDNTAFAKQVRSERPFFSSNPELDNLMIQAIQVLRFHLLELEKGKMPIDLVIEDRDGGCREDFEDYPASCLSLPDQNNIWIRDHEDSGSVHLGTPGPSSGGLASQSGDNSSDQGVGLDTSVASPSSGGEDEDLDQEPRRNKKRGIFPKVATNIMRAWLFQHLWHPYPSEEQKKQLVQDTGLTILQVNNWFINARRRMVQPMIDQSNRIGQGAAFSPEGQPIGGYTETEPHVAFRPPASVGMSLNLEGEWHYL
UniProt O15315: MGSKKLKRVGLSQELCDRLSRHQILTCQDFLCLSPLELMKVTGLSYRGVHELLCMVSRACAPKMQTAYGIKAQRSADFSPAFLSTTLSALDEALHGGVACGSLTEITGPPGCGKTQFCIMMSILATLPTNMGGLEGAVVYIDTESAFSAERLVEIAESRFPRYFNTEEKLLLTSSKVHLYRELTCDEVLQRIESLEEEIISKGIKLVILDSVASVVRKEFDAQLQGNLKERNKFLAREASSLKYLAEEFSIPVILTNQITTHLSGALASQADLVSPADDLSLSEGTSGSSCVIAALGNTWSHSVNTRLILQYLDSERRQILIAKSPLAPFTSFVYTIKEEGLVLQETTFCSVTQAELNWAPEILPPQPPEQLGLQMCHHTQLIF
UniProt G2XKQ0: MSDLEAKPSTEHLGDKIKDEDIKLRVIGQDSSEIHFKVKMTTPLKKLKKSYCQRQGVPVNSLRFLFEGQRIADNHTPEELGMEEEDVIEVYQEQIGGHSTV
UniProt O15212, whole entry: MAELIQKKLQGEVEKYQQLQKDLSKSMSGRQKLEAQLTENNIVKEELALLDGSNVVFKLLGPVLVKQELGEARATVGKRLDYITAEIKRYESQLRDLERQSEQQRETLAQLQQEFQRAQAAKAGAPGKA
UniProt O00161: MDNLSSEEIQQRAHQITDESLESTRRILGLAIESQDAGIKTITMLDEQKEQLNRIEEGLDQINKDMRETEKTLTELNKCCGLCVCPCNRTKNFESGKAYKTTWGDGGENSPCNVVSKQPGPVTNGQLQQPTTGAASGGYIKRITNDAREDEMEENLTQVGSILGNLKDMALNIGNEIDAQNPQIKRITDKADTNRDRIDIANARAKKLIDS
UniProt O15169, whole entry: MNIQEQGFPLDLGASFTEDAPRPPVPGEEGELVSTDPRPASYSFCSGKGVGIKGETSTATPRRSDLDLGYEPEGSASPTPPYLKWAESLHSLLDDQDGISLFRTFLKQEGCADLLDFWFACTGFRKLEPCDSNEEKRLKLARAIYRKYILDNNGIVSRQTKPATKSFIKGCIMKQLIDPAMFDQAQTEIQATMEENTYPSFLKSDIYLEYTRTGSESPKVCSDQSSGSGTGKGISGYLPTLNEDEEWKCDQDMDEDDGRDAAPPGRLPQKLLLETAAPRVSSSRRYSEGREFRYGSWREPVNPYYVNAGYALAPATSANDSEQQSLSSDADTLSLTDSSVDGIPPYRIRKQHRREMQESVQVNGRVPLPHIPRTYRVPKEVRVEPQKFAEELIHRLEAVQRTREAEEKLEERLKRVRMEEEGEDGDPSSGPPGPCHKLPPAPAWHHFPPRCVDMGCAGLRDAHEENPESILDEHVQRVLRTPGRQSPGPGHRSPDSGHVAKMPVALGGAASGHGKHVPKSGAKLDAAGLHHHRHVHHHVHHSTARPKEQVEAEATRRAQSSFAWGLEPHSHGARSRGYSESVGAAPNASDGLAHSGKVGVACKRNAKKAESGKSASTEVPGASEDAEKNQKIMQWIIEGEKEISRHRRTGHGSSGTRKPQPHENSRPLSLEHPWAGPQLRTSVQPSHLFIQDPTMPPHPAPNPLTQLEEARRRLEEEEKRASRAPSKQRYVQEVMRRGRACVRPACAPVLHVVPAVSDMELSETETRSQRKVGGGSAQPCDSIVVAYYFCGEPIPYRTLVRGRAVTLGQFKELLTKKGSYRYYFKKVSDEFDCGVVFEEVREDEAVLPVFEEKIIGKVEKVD
UniProt O00193: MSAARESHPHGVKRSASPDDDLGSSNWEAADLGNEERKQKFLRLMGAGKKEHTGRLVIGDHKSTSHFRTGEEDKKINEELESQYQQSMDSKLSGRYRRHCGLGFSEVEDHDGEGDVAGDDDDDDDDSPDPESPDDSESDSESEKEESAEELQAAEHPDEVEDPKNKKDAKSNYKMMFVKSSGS
UniProt O00470: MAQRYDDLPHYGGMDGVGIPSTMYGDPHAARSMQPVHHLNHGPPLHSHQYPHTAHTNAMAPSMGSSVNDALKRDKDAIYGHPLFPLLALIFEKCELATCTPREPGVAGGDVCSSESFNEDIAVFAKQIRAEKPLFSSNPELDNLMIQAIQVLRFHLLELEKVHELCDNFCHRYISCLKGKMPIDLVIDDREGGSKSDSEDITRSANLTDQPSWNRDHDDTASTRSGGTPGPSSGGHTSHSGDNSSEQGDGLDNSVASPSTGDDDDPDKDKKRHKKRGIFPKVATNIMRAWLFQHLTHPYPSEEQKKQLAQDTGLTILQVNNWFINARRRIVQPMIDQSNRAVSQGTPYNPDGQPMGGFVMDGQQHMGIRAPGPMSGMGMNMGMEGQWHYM
UniProt O00499: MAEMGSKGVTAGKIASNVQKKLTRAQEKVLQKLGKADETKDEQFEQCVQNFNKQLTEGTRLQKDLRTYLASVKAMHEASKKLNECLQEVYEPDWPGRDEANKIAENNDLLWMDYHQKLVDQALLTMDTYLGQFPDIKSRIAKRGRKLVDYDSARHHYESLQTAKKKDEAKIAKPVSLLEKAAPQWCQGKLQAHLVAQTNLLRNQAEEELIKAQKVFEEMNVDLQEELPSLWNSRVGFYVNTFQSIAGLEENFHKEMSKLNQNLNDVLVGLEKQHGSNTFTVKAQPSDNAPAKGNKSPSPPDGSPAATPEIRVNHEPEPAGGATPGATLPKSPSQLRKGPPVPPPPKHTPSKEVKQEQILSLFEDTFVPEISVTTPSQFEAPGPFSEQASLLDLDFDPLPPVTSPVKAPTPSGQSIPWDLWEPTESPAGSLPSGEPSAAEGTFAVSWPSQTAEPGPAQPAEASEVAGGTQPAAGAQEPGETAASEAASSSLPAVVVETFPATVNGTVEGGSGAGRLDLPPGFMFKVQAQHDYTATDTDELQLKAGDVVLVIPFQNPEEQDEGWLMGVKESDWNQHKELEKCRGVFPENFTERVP
UniProt A8MPP1: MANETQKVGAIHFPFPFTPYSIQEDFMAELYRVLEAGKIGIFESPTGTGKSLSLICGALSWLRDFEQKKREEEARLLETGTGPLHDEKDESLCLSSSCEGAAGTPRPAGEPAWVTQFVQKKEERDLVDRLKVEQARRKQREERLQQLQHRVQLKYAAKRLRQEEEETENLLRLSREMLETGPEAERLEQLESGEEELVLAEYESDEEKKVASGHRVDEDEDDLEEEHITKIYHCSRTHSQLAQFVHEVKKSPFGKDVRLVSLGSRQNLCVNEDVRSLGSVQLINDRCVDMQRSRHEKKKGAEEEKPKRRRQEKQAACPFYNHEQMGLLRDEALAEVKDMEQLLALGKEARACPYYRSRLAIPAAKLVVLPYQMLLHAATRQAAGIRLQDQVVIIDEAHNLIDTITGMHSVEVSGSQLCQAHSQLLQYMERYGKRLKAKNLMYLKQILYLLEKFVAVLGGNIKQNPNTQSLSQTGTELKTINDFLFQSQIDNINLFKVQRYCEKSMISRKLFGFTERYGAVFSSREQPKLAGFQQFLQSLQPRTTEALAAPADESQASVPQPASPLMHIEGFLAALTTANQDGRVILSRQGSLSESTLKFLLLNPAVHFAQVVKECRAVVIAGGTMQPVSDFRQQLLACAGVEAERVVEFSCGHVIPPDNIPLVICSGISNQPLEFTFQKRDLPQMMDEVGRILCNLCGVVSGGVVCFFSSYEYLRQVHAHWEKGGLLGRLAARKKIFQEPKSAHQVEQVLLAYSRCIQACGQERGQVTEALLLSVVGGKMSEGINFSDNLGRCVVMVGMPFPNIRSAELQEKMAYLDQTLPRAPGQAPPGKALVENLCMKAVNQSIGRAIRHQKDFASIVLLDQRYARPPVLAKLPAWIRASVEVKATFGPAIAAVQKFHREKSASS
UniProt O00625: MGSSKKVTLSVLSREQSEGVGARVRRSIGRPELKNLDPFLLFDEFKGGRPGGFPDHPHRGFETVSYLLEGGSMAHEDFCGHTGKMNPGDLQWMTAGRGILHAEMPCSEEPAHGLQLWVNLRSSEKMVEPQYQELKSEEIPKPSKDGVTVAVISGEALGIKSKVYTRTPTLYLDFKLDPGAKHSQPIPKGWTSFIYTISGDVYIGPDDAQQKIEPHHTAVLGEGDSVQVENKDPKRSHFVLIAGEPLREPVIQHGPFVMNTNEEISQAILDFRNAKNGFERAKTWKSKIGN
UniProt O15198: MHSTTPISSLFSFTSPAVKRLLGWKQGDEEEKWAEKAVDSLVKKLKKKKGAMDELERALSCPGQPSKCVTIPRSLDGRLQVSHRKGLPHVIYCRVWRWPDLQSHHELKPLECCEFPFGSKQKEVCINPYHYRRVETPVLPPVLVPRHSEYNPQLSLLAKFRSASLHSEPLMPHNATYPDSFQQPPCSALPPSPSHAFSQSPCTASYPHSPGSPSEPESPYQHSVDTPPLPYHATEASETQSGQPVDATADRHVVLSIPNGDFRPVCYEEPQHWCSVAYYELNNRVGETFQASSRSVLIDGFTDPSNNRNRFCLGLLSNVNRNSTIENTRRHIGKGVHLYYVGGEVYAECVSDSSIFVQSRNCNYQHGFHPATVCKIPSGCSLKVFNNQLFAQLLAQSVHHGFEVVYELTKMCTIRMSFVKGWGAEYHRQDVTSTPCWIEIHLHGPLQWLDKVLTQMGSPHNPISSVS
UniProt O15042: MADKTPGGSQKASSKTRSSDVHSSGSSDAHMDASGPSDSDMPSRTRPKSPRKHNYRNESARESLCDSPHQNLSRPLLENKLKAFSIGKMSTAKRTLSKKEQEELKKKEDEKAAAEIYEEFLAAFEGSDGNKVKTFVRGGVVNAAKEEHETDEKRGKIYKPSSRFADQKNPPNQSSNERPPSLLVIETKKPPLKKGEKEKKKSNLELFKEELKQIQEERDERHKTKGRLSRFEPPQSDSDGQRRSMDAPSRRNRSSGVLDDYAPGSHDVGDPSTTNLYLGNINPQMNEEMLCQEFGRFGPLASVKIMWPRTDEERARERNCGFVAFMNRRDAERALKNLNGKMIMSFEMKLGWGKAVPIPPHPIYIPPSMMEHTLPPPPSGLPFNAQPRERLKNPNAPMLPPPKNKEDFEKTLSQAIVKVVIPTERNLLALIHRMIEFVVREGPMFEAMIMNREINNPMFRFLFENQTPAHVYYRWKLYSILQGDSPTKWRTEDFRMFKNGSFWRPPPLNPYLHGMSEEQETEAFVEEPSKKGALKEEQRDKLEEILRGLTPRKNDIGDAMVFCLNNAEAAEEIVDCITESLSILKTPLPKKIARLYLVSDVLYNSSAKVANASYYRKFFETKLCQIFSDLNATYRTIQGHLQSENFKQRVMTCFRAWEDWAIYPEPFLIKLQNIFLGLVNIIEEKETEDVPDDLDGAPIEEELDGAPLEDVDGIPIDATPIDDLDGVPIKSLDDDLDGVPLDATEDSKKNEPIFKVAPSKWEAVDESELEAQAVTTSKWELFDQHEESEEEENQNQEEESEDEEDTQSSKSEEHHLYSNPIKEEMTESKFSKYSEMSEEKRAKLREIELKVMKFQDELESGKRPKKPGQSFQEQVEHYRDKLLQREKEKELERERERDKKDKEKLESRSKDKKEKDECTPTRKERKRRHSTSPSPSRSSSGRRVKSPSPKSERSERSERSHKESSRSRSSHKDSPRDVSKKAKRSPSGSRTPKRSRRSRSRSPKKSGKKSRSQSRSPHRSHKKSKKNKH
UniProt O14975, whole entry, looked up: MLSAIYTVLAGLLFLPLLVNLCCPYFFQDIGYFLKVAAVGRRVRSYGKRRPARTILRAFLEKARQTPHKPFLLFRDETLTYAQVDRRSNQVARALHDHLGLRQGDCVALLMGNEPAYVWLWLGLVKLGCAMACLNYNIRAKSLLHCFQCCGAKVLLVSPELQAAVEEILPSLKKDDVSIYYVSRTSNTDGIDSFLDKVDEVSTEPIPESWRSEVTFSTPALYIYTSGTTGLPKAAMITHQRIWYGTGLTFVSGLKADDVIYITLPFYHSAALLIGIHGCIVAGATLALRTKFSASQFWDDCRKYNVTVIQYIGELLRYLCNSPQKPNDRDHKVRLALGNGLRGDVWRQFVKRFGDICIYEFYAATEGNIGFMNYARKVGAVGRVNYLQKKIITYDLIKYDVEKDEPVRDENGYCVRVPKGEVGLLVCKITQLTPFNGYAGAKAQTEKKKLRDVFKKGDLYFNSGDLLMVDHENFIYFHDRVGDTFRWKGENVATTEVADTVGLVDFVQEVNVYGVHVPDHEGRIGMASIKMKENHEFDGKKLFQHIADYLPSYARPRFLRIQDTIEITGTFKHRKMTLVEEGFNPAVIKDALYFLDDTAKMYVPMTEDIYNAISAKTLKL

This is one part of the list. Most entries show no effect beyond the scatter of the controls.
The targets below were run with CN[C@@H]1C[C@H]2O[C@@](C)([C@@H]1OC)n1c3ccccc3c3c4c(c5c6ccccc6n2c5c31)C(=O)NC4 [staurosporine] (assay: log2 fold change of tryptic peptide abundance, ligand vs vehicle (limited proteolysis) (log2 ratio); higher = more trypsin-susceptible (destabilized)). Conditions: ligand concentration: 20 uM; sample: K562 cleared lysate; digestion: 4 min, 22 C (HT-PELSA RT4min, Orbitrap Astral).
In the case of “UniProt A8K0S8 (peptide sequence: GKMPIDLVIEDR, peptide start residue: 66)”, the log2 fold change was 0.0498.
For “MRPS12 (peptide sequence: GVVLCTFTR, peptide start residue: 60) (UniProt O15235)”, the log2 fold change was -0.0417.
For “UniProt O15315 (peptide sequence: LILQYLDSERR, peptide start residue: 308)”, the log2 fold change was -0.172.
Work on “SAP18 (peptide sequence: VKEIGSTMSGR, peptide start residue: 103) (UniProt O00422)” yielded a log2 fold change of 0.115.
“DCTN6 (peptide sequence: ILPNYHHLK, peptide start residue: 170) (UniProt O00399)” was tested, and the log2 fold change was 0.199.
With “UniProt G2XKQ0 (peptide sequence: VIGQDSSEIHFKVK, peptide start residue: 26)” the log2 fold change was -0.244.
Work on “SIVA1 (peptide sequence: AVCGQCER, peptide start residue: 125) (UniProt O15304)” yielded a log2 fold change of -1.01.
Target “PFDN6 (peptide sequence: KLQGEVEKYQQLQK, peptide start residue: 8) (UniProt O15212)” has a log2 fold change of -0.172.
For “GTPBP1 (peptide sequence: QTATILSMDKDCLR, peptide start residue: 520) (UniProt O00178)”, the log2 fold change was -0.21.
With “SUPT5H (peptide sequence: DQREEELGEYYMK, peptide start residue: 131) (UniProt O00267)” the log2 fold change was -0.163.
“SNAP23 (peptide sequence: AHQITDESLESTR, peptide start residue: 13) (UniProt O00161)” was tested, and the log2 fold change was -0.111.
“AXIN1 (peptide sequence: DAAPPGRLPQK, peptide start residue: 260) (UniProt O15169)” showed a log2 fold change of 0.558.
“UniProt A6NJ78 (peptide sequence: RAPLMWELIHK, peptide start residue: 370)” showed a log2 fold change of 0.623.
“STX7 (peptide sequence: ETDKYIKEFGSLPTTPSEQR, peptide start residue: 65) (UniProt O15400)” gave a log2 fold change of -0.23.
In the case of “UniProt O00193 (peptide sequence: ESHPHGVKR, peptide start residue: 6)”, the log2 fold change was 0.146.
“MEIS1 (peptide sequence: DHDDTASTR, peptide start residue: 216) (UniProt O00470)” gave a log2 fold change of -0.834.
Work on “UniProt A6NKF1 (peptide sequence: LEVVPGCR, peptide start residue: 78)” yielded a log2 fold change of -0.189.
Work on “VWA5A (peptide sequence: TFQMDDYSLCGLISHK, peptide start residue: 654) (UniProt O00534)” yielded a log2 fold change of -0.131.
With “BCL9 (peptide sequence: FAMPSSTPLYHDAIK, peptide start residue: 1016) (UniProt O00512)” the log2 fold change was 0.382.
“NACA (peptide sequence: IEDLSQQAQLAAAEKFK, peptide start residue: 1991) (UniProt E9PAV3)” gave a log2 fold change of -0.126.
“BIN1 (peptide sequence: VNHEPEPAGGATPGATLPK, peptide start residue: 312) (UniProt O00499)” was tested, and the log2 fold change was 0.147.
“DDX11L8 (peptide sequence: HQKDFASIVLLDQR, peptide start residue: 870) (UniProt A8MPP1)” showed a log2 fold change of -0.705.
“PIR (peptide sequence: GGRPGGFPDHPHR, peptide start residue: 47) (UniProt O00625)” gave a log2 fold change of 0.651.
“SMAD9 (peptide sequence: GLPHVIYCR, peptide start residue: 83) (UniProt O15198)” was tested, and the log2 fold change was 0.265.
“UniProt O15042 (peptide sequence: KSNLELFK, peptide start residue: 201)” gave a log2 fold change of 0.533.
With “SLC27A2 (peptide sequence: GEVGLLVCK, peptide start residue: 420) (UniProt O14975)” the log2 fold change was 0.428.
Target “TCAF2 (peptide sequence: APVVTHQCWMDRTER, peptide start residue: 590) (UniProt A6NFQ2)” has a log2 fold change of -0.301.
In the case of “SOX12 (peptide sequence: WQLLQDSEKIPFVR, peptide start residue: 78) (UniProt O15370)”, the log2 fold change was -0.144.
Target “AGPS (peptide sequence: ESISDVGFGMLK, peptide start residue: 629) (UniProt O00116)” has a log2 fold change of 0.142.

From the supplement of paper PMC12819154, “High-throughput peptide-centric local stability assay extends protein–ligand identification to membrane proteins, tissues and bacteria” (Nature Structural & Molecular Biology, 2025)
